This test can be described thus: qHTS Assay for Lipid Storage Modulators in Drosophila S3 Cells.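 On cell number change: cells counted by Cell Tracker Red CMTPX staining in the red channel.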 Conditions: BODIPY lipid droplet fluorescence, 18-24 h; for cell number change: measured here: cell count max response, cells fed with added oleic acid. The gist of the method:
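Drosophila S3 cells loaded with oleic acid (400 uM, as added) and compounds at several concentrations; lipid droplets imaged by 488-nm laser-scanning cytometry, 500–530 nm intensity and object ratio to cell channel. Percent activity normalized to 20 uM Triacsin C.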
A general note: qHTS replaces the single test concentration by a dilution series.

Where [1] appears, read: measured here: cell number channel AC50, cells fed with added oleic acid.
Where [2] appears, read: measured here: lipid fluorescence (Fed channel) AC50, cells fed with added oleic acid.

SMILES strings stand for the structures. The list shows a part of the results. These are further read-outs of the screen, such as a control signal, another cell line or another target. No call is given for them. Compounds called inactive in the main read-out are mostly missing here. Words in brackets tell the shape of the fitted curve; partial curves, single points and poor fits give uncertain potencies.

61 compounds from PubChem BioAssay AID2685 (National Center for Advancing Translational Sciences (NCATS), 2010) can be followed below.

By AC50 is commonly meant the concentration giving half of the maximal activity seen. Lower therefore signals greater potency. As to `C=CCc1cccc2cc(C(=O)NCc3cccnc3)c(=O)oc12`, the cell number change amounted to 263%. Moreover, the AC50 under setting [1] was 16.4 µM [rising, partial curve]. For the same compound, under setting [2], the AC50 is 18.4 µM [rising, partial curve].
For `CCC(C)c1ccccc1NC(=O)COC(=O)C1=COCCO1` (stereo not given), the cell number change was -63%. Further, under setting [1], the AC50 was 29.1 µM [falling, single point]. Further, the AC50 under setting [2] is 0.517 µM [rising, partial curve].
Take `CCOC(=O)CNC(=O)/C=C/c1c(Cl)cccc1Cl`: the cell number change is -13%. For the same compound, the AC50 under setting [2] was 9.2 µM [rising, single point].
Turning to `O=C(NCCN1CCCCC1)Nc1ccccc1`, the cell number change was -25.7%. Further, under setting [1], the AC50 was 4.11 µM [falling, full curve, poor fit].
Regarding `O=C1Nc2ccc(NS(=O)(=O)c3cccs3)c3cccc1c23`, the cell number change is -24.7%.
Take `CC(C)Cc1nnc(NC(=O)CSc2ccccn2)s1`: the cell number change was determined as 51.6%. Also, under setting [1], the AC50 was 29.1 µM [rising, single point].
With `Cc1ccc(S(=O)(=O)N(C)C)cc1NC(=O)COC(=O)CCC(=O)c1cccs1`, the cell number change was found to be 18.5%. Under setting [2], the AC50 is 0.58 µM [rising, full curve].
Turning to `O=C(O)CNS(=O)(=O)c1ccc2[nH]c(=O)c(=O)[nH]c2c1`, the cell number change is -23.4%. In addition, the AC50 under setting [1] was 0.0731 µM [falling, full curve, poor fit]. For the same compound, the AC50 under setting [2] is 0.164 µM [falling, full curve, poor fit].
As for `Cc1cc(NC(=O)CSc2nc3c(c(=O)n2Cc2ccccc2)SC(C)C3)no1` (stereo not given), the cell number change worked out at 1.59%. For the same compound, the AC50 under setting [2] was 0.291 µM [rising, partial curve].
With `O=C(c1cc(-c2ccco2)nc2ccccc12)N(Cc1nnc(-c2ccc(Cl)cc2)o1)C1CC1`, the cell number change was -21.6%. In addition, under setting [2], the AC50 is 0.00411 µM [falling, full curve, poor fit].
With `O=C(NC(=S)NNC(=O)c1ccco1)c1ccc(F)cc1`, the AC50 under setting [2] is 29.1 µM [falling, single point].
Take `O=C(NCCN1C(=O)S/C(=C\c2cccnc2)C1=O)c1cccc(OC(F)F)c1`: the cell number change was found to be 6.16%.
Take `O=c1c(-c2ccccc2)c(O)cc(-c2ccncc2)n1-c1ccc(Cl)cc1`: the cell number change is 1.32%. Further, the AC50 under setting [1] is 6.51 µM [falling, single point]. The AC50 under setting [2] is 6.51 µM [falling, single point].
On to `C/C(=N\NC(=O)c1cc(-c2ccc(O)cc2)nc2ccccc12)c1cccnc1`, for which the AC50 under setting [1] was 2.91 µM [falling, single point].
Regarding `Cc1nnc(SCC(=O)NCCN2C(=O)CSC2=O)s1`, the cell number change was -99.2%. For the same compound, under setting [1], the AC50 is 29.1 µM [falling, single point]. In addition, under setting [2], the AC50 is 18.4 µM [falling, single point].
With `Cc1ccc(NC(=S)NNC(=O)c2c(Cl)c(C)nn2C)cc1`, the cell number change was 48.8%. Besides, the AC50 under setting [1] is 3.26 µM [rising, full curve].
`Cc1ccc2nc(SCC(=O)c3cc(C)n(C)c3C)[nH]c2c1`: the cell number change was -45.5%. Also, the AC50 under setting [1] is 16.4 µM [falling, partial curve]. In addition, the AC50 under setting [2] was 13 µM [falling, partial curve].
With `COC(=O)C(NC(=O)c1ccccc1)(Nc1nc(C)cs1)C(F)(F)F` (stereo not given), the cell number change was 0.904%. For the same compound, the AC50 under setting [2] is 6.51 µM [falling, single point].
With `O=S(=O)(c1cccc(Br)c1)N1CCN(c2ccnc3cc(Cl)ccc23)CC1`, under setting [2], the AC50 is 1.3 µM [rising, full curve, poor fit].
Take `CCN(CC)S(=O)(=O)c1cccc(-c2nnc(SCC(=O)NCCC3=CCCCC3)n2N)c1`: the cell number change was -12.9%. The concentration at half-maximal activity (AC50) under setting [2] is 16.4 µM [falling, partial curve, poor fit].
As to `Cc1ccc2[nH]c(=O)c(CN(c3cccc(C)c3C)S(=O)(=O)c3ccccc3)cc2c1`, the AC50 under setting [2] was 0.00517 µM [falling, full curve, poor fit].
Regarding `Cc1ccc(S(=O)(=O)N2CCOCC2)cc1NC(=O)COC(=O)CNC(=O)c1ccc(Cl)cc1Cl`, the cell number change amounted to 2.55%. The AC50 under setting [2] was 29.1 µM [falling, single point].
As for `CCc1nnc(NS(=O)(=O)c2ccc(Nc3ccc([N+](=O)[O-])c4nonc34)cc2)s1`, the cell number change worked out at 10.2%. The AC50 under setting [1] was 0.0651 µM [rising, full curve].
Regarding `CN1CCN(CC(=O)Nc2sc3c(c2C(=O)Nc2ccccc2)CCCC3)CC1`, the cell number change was found to be 49.7%. Further, under setting [1], the AC50 is 29.1 µM [rising, single point]. Also, the AC50 under setting [2] was 29.1 µM [rising, single point].
`CC(C)Cc1nc2ccccc2n1CCc1ccccc1`: the cell number change was found to be 12.3%. Under setting [2], the AC50 is 4.11 µM [rising, partial curve, poor fit].
Consider `CCn1nnnc1-c1ccc(OC)c(S(=O)(=O)Nc2ccc(C)c(C)c2)c1`, for which the cell number change was found to be 2.75%.
The same measure, in the same setting: under `O=C(c1ccc(S(=O)(=O)N2CCCC2)cc1)N1CCN(c2ccccc2)CC1` stands 5.13%.
For the compound `Cc1ccc(S(=O)(=O)CCC(=O)OCC(=O)N(C)C2CCS(=O)(=O)C2)cc1` (stereo not given), the cell number change is -26.5%.
Regarding `O=C(CCC(=O)Nc1ccc(Cl)cc1Cl)N/N=C/c1ccc([N+](=O)[O-])o1`, the cell number change is -8.59%. Besides, under setting [1], the concentration at half-maximal activity (AC50) was 0.731 µM [rising, full curve]. The AC50 under setting [2] was 1.03 µM [rising, full curve].
Consider `CCOC(=O)C1=C(C)NC(=O)NC1C` (stereo not given), for which the AC50 under setting [2] was 29.1 µM [falling, single point].
With `CCCCn1c(N)c(N(CCOC)C(=O)c2c(CC)noc2C)c(=O)[nH]c1=O`, the cell number change was -39.9%. For the same compound, under setting [1], the AC50 is 4.11 µM [falling, full curve]. Further, the AC50 under setting [2] was 4.11 µM [falling, full curve].
For `O=C(Cc1ccccc1)NCC(=O)OCC(=O)c1ccccc1Cl`, the cell number change was found to be 5.97%. In addition, the AC50 under setting [2] is 0.0058 µM [rising, full curve, poor fit].
In the case of `Cc1cnc(C(=O)N2CCCC(C(=O)c3ccc(Cl)cc3C)C2)cn1` (stereo not given), the cell number change amounted to 6.05%. Under setting [2], the AC50 is 0.00461 µM [rising, full curve, poor fit].
Take `COc1ccc(-c2nc(C#N)c(NCCCN(C)C)o2)cc1OC`: the cell number change was -36.5%. For the same compound, under setting [1], the AC50 is 7.31 µM [falling, full curve, poor fit].
In the case of `Cc1ccc(CCNC(=O)C2=CCN(S(=O)(=O)c3ccccc3)CC2)cc1`, the cell number change turned out to be 11.9%. For the same compound, the AC50 under setting [2] is 6.51 µM [rising, single point].
In the case of `Cn1c2ccccc2c2n[nH]c(=O)nc21`, the cell number change turned out to be 0.213%.
Regarding `CCn1c(-c2ccccc2Cl)nn(CC(=O)Nc2cc(Cl)ccc2Cl)c1=S`, the cell number change worked out at 25.6%. Further, the AC50 under setting [2] was 4.61 µM [rising, partial curve].
`CC1CCCC(NC(=O)c2ccc3c(c2)N(Cc2ccccc2)C(=O)CS3=O)C1C` (stereo not given): the AC50 under setting [2] is 2.91 µM [rising, single point].
Consider `CC(OC(=O)C1CCN(c2ccc(C(F)(F)F)cn2)CC1)C(=O)NC1CCCCC1C` (stereo not given), for which the cell number change stood at 3.44%. The AC50 under setting [2] is 0.00517 µM [rising, full curve, poor fit].
As to `COC(=O)CSc1nc(N)c(C#N)c(CC(C)C)c1C#N`, the cell number change came to 6.42%. Further, under setting [2], the AC50 was 6.51 µM [rising, single point].
As to `Oc1ccccc1O`, the cell number change is 15.6%. In addition, the AC50 under setting [2] was 0.651 µM [rising, full curve, poor fit].
For `O=C(Nc1cccc(C(=O)O)c1)Nc1ccccc1Cl`, the cell number change is -45.1%. Also, under setting [1], the AC50 is 29.1 µM [falling, single point]. For the same compound, the AC50 under setting [2] was 3.26 µM [rising, single point].
With `O=S(=O)(/N=C(/Nc1ccc(Cl)c(S(=O)(=O)Nc2ccccc2Cl)c1)c1ccc(F)cc1)c1ccccc1`, the cell number change came out at 97.8%.
As to `c1ccc(C2NCCn3cccc32)cc1` (stereo not given), the cell number change is 48.8%. The AC50 under setting [1] was 16.4 µM [rising, partial curve].
Take `Cc1cccc(-n2nnc3c(=O)n(CC(=O)Nc4cc(C)on4)cnc32)c1`: the cell number change turned out to be 35%. Besides, the AC50 under setting [1] was 5.17 µM [rising, full curve, poor fit].
In the case of `O=C(Nc1nccs1)c1ccc2ccccc2c1`, the cell number change is -18.6%.
For `CC(=O)c1cccc(NC(=O)COc2cc(C)on2)c1`, the cell number change was determined as 4.19%. Also, the AC50 under setting [2] is 6.51 µM [rising, single point].
For `CCn1c(=N)c(C(=O)NCc2cccnc2)cc2c(=O)n3cccc(C)c3nc21`, the cell number change turned out to be 30.9%. Under setting [1], the AC50 was 5.17 µM [rising, partial curve]. The AC50 under setting [2] was 8.2 µM [rising, partial curve, poor fit].
In the case of `O=C(Nc1ccccn1)c1ccc2nc(-c3ccccc3)c(-c3ccccc3)nc2c1`, the cell number change is -10.5%. Moreover, the AC50 under setting [2] is 1.84 µM [falling, single point].
`O=C(NCc1cccs1)Nc1ccc2c(c1)OCO2`: under setting [2], the AC50 was 0.116 µM [falling, full curve, poor fit].
As for `N#CC1CC(c2ccccc2)=NN1c1ccccc1[N+](=O)[O-]` (stereo not given), the cell number change came to 17.3%.
Turning to `COC(=O)/C=C1\OC(c2ccccc2)=CC1=O`, the AC50 under setting [1] was 0.00517 µM [falling, full curve, poor fit].
On to `COc1ccc(C(=O)c2oc3ccc(OC)cc3c2NC(C)=O)cc1`, for which the cell number change was 49.8%.
As to `COc1ccc([C@H]2CC(=O)C=C(c3ccc4cc[nH]c4c3)C2)cc1`, under setting [2], the AC50 is 0.00461 µM [falling, full curve, poor fit].
Turning to `CCOC(=O)c1c(C)[nH]c(C(=O)OCC(=O)NCCc2ccc(OCC)c(OCC)c2)c1C`, the cell number change is -58.5%. The AC50 under setting [1] was 8.2 µM [falling, partial curve]. In addition, the AC50 under setting [2] was 5.8 µM [falling, partial curve].
As to `CCOc1ccccc1Nc1nc(N)nc(CSc2nncn2C)n1`, the cell number change was found to be 145%. In addition, the AC50 under setting [1] is 25.9 µM [rising, single point].
On to `Cc1ccc(-c2nn(-c3ccccc3)cc2C(N)=O)o1`, for which the cell number change amounted to 156%. In addition, under setting [2], the AC50 is 18.4 µM [rising, partial curve].
As to `Cc1ccccc1NC(=O)C1CCCN(c2nnc(N3CCCC3=O)s2)C1` (stereo not given), the cell number change was found to be 13.5%. Moreover, the AC50 under setting [2] is 6.51 µM [rising, single point].
Consider `O=C(OC1CCOC1=O)c1cccc(S(=O)(=O)Nc2ccc(F)cc2)c1` (stereo not given), for which the cell number change was -29.5%. Under setting [2], the AC50 is 0.731 µM [falling, full curve].
With `CC(=O)C1=C(O)C(=O)N(c2ccccn2)C1c1cccc(F)c1` (stereo not given), the cell number change was found to be 13.9%. Moreover, the AC50 under setting [2] is 0.58 µM [falling, single point].
On to `CCC(CO)[n+]1c(C)cc(/C=C2\Sc3ccccc3N2Cc2ccccc2)cc1C` (stereo not given), for which the cell number change was -58.9%. Also, under setting [1], the AC50 was 5.8 µM [falling, full curve].
